Assay results from the M2OR odorant receptor database.
Only a part is listed here, and it is no random draw. The calls were merged from several studies; some rest on single wells. The list shows a part of the results.

Columns and labels:
Conditions in all cases: stereoisomer not certain
[1] = system: T1, OR4K3
T1 sequence (whole entry): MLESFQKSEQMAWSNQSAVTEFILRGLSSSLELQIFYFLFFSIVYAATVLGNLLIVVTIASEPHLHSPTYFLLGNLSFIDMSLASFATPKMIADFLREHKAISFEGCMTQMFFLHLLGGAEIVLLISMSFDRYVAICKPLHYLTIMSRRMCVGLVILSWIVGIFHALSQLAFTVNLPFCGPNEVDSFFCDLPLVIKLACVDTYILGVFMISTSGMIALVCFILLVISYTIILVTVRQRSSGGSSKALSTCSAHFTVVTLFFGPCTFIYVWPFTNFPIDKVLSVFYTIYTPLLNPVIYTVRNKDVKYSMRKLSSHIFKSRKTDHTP
How it was run: (§1)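 Values were gathered from published papers (main text and supplementary material), with extra details requested from the original authors when needed, and checked for typos and inconsistencies. Each receptor–molecule pair is called responsive (active) if the original authors judged the measured signal statistically different from baseline, and non-responsive (inactive) otherwise. Assay methods varied by source, often transient mammalian cell-line luciferase assays. Recorded details include cell line, G-protein, co-transfected protein and tags.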

[2] = molecular target: T2, OR4K5 (Homo sapiens) (UniProt Q8NGD3)
T2 sequence (whole entry): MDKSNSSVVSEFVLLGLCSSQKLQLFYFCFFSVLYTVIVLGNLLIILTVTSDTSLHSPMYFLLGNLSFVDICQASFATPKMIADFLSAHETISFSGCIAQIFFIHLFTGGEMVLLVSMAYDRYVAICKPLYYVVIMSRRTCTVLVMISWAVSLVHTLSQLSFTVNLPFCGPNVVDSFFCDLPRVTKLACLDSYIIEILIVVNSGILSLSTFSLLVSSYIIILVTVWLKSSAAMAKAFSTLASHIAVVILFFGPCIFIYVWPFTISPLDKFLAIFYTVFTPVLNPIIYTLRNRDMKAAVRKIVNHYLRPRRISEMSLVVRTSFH
How it was run: as §1

[3] = system: T3, OR4KF
T3 sequence (whole entry): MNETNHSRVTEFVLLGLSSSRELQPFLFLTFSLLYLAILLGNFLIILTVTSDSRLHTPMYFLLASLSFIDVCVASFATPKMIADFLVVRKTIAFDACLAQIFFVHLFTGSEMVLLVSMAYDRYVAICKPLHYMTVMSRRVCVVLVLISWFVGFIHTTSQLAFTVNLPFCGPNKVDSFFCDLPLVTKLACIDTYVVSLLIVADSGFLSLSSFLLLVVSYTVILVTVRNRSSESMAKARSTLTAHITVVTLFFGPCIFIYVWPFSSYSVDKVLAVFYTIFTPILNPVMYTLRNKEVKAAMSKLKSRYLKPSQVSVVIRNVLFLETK
How it was run: as §1

[4] = system: T4, OR4KH
T4 sequence (whole entry): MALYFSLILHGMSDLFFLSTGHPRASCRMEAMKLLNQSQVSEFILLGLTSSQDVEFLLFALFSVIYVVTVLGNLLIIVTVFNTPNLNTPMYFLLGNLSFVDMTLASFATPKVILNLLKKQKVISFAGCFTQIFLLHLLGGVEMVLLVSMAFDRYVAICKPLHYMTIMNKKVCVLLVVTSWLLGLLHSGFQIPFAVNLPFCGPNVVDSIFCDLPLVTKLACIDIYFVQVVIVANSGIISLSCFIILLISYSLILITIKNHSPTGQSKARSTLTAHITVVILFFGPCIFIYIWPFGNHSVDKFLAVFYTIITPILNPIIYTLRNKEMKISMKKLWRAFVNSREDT
How it was run: as §1

[5] = system: T5, OR4L1
T5 sequence (whole entry): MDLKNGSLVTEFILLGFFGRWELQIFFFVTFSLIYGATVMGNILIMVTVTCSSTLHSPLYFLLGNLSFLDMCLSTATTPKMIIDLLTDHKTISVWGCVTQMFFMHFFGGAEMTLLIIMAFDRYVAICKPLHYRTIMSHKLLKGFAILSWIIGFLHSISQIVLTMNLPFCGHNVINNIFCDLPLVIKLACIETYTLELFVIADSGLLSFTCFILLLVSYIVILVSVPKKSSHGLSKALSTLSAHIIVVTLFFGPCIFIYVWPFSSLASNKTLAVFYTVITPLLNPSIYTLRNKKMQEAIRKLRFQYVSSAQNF
How it was run: as §1

[6] = molecular target: T6, OR4M1 (Homo sapiens) (UniProt Q8NGD0)
T6 sequence (whole entry): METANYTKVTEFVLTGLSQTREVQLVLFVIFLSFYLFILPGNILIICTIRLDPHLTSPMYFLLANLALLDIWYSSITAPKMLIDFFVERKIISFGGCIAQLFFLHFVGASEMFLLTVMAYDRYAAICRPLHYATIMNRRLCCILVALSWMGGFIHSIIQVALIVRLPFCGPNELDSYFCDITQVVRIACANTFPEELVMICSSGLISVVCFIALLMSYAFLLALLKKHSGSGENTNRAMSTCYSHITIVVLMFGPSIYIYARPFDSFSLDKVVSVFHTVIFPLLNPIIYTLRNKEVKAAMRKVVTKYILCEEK
How it was run: as §1

[7] = molecular target: T7, OR4N2 (Homo sapiens) (UniProt Q8NGD1)
T7 sequence (whole entry): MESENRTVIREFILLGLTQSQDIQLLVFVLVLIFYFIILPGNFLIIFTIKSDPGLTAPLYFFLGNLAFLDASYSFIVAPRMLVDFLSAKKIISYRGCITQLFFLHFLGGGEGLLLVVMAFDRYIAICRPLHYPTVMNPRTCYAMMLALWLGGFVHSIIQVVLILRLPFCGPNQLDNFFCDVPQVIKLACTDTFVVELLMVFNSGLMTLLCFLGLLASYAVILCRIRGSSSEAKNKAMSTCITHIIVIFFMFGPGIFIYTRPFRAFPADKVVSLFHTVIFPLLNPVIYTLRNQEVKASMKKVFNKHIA
How it was run: as §1

[8] = molecular target: T8, OR4N4 (Homo sapiens) (UniProt Q8N0Y3)
T8 sequence (whole entry): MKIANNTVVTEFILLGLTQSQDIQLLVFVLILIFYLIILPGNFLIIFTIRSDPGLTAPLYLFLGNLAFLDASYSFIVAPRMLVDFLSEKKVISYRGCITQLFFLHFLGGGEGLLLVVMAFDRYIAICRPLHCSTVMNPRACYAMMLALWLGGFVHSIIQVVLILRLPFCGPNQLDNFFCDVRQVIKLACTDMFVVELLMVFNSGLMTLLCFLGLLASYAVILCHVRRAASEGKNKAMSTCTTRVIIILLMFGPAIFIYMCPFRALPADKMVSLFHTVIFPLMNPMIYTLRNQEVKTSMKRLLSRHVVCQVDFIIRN
How it was run: as §1

[9] = molecular target: T9, OR4N5 (Homo sapiens) (UniProt Q8IXE1)
T9 sequence (whole entry): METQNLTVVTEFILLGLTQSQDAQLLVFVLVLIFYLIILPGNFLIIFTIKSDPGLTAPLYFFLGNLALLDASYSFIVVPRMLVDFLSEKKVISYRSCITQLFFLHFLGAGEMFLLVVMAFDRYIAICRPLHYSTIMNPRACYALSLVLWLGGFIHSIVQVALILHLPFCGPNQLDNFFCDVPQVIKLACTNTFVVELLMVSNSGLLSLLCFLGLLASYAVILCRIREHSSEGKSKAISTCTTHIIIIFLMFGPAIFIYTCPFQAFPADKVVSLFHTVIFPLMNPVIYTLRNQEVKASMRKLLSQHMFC
How it was run: as §1

[10] = system: T10, OR4P4
T10 sequence (whole entry): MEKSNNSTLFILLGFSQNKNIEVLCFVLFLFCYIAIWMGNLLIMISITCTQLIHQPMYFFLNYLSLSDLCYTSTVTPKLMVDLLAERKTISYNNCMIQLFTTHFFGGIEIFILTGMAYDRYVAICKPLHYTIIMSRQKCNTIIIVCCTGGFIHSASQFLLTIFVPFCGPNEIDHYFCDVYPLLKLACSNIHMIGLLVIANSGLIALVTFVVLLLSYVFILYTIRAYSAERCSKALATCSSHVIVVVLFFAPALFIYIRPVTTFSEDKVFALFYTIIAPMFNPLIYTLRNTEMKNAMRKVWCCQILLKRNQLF
How it was run: as §1

[11] = system: T11, OR4P4; remark: listed apart in the source
T11 sequence (whole entry): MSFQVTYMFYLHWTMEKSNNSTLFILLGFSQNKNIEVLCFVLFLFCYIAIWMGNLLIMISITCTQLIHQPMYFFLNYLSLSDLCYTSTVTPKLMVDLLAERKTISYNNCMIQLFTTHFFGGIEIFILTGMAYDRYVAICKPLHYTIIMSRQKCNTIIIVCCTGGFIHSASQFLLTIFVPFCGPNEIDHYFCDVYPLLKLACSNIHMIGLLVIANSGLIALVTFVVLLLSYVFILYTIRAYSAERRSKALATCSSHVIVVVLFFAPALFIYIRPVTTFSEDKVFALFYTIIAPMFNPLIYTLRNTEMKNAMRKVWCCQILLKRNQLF
How it was run: as §1

[12] = molecular target: T12, OR4Q3 (Homo sapiens) (UniProt Q8NH05)
T12 sequence (whole entry): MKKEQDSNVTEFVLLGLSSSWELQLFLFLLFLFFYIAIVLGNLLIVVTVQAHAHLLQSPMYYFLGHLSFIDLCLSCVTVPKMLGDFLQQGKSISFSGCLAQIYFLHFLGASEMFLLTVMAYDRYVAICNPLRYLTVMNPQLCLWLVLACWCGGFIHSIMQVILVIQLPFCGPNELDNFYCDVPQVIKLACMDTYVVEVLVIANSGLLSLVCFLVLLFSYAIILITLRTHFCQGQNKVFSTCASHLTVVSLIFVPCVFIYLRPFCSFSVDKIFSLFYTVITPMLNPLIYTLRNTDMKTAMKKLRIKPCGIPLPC
How it was run: as §1

[13] = molecular target: T13, OR4S1 (Homo sapiens) (UniProt Q8NGB4)
T13 sequence (whole entry): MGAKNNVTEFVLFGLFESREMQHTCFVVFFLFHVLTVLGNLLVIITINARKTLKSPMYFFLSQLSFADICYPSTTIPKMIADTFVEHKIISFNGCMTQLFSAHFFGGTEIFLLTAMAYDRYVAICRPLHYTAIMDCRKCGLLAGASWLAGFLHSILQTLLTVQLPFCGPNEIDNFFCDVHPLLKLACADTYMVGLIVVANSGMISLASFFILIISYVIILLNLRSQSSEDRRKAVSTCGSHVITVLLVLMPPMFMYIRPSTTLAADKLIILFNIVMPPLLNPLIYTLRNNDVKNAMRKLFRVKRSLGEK
How it was run: as §1

SMILES	odorant receptor agonist call [1]	odorant receptor agonist call [2]	odorant receptor agonist call [3]	odorant receptor agonist call [4]	odorant receptor agonist call [5]	odorant receptor agonist call [6]	odorant receptor agonist call [7]	odorant receptor agonist call [8]	odorant receptor agonist call [9]	odorant receptor agonist call [10]	odorant receptor agonist call [11]	odorant receptor agonist call [12]	odorant receptor agonist call [13]
CCCCO	inactive	inactive	inactive	inactive	inactive	inactive	inactive	inactive	inactive	inactive	inactive	inactive	inactive
COc1cc(C)ccc1O	inactive	inactive	inactive	inactive	inactive	inactive	inactive	inactive	inactive	inactive	inactive	inactive	inactive
CC(C)=CCCC(C)=CC=O	inactive	inactive	inactive	inactive	inactive	inactive	inactive	inactive	inactive	inactive	inactive	inactive	inactive
CCCCCCCCOC(C)=O	inactive	inactive	inactive	inactive	inactive	inactive	inactive	inactive	inactive	inactive	inactive	inactive	inactive
c1ccc(Oc2ccccc2)cc1	inactive	inactive	inactive	inactive	inactive	inactive	inactive	inactive	inactive	inactive	inactive	inactive	inactive
c1cnccn1	inactive	inactive	active	inactive	inactive	inactive	inactive	inactive	inactive	inactive	inactive	inactive	inactive
CC1CCC(C(C)C)C(O)C1 (stereo unspecified)	inactive	inactive	active	inactive	inactive	active	inactive	inactive	inactive	inactive	inactive	inactive	inactive
CC(C)(C)c1ccc(CCC=O)cc1	inactive	inactive	inactive	inactive	inactive	inactive	inactive	inactive	inactive	inactive	inactive	inactive	inactive
CC12CCC(CC1)C(C)(C)O2	inactive	inactive	inactive	inactive	inactive	inactive	inactive	inactive	inactive	inactive	inactive	inactive	inactive
COc1cc(C=O)ccc1O	inactive	inactive	inactive	inactive	inactive	inactive	inactive	inactive	inactive	inactive	inactive	inactive	inactive
C=CCc1ccc(OC(C)=O)c(OC)c1	inactive	inactive	active	inactive	inactive	active	inactive	inactive	inactive	inactive	inactive	inactive	inactive
CCCCCCCOC(C)=O	inactive	inactive	inactive	inactive	inactive	inactive	inactive	inactive	inactive	inactive	inactive	inactive	inactive

Retrieved by compound from the entries so far:
SMILES	odorant receptor agonist call [1]	odorant receptor agonist call [2]	odorant receptor agonist call [3]	odorant receptor agonist call [4]	odorant receptor agonist call [5]	odorant receptor agonist call [6]	odorant receptor agonist call [7]	odorant receptor agonist call [8]	odorant receptor agonist call [9]	odorant receptor agonist call [10]	odorant receptor agonist call [11]	odorant receptor agonist call [12]	odorant receptor agonist call [13]
COc1cc(C)ccc1O	inactive	inactive	inactive	inactive	inactive	inactive	inactive	inactive	inactive	inactive	inactive	inactive	inactive
CCCCO	inactive	inactive	inactive	inactive	inactive	inactive	inactive	inactive	inactive	inactive	inactive	inactive	inactive
